From the supplement of paper PMC10849652
Some of the results follow.

By UniProt entry, the sequences of proteins in these tests, tags left out. Where a name states a change or a piece, a line headed by the entry shows the natural chain unless it says otherwise.
UniProt P56385: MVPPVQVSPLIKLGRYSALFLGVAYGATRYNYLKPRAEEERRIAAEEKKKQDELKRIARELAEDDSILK
UniProt P56378: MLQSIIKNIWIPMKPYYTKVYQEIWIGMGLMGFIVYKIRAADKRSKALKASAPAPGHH
UniProt P18859: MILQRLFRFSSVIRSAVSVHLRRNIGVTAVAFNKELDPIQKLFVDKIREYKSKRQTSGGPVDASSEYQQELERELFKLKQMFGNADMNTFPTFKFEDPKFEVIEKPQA
UniProt Q13315: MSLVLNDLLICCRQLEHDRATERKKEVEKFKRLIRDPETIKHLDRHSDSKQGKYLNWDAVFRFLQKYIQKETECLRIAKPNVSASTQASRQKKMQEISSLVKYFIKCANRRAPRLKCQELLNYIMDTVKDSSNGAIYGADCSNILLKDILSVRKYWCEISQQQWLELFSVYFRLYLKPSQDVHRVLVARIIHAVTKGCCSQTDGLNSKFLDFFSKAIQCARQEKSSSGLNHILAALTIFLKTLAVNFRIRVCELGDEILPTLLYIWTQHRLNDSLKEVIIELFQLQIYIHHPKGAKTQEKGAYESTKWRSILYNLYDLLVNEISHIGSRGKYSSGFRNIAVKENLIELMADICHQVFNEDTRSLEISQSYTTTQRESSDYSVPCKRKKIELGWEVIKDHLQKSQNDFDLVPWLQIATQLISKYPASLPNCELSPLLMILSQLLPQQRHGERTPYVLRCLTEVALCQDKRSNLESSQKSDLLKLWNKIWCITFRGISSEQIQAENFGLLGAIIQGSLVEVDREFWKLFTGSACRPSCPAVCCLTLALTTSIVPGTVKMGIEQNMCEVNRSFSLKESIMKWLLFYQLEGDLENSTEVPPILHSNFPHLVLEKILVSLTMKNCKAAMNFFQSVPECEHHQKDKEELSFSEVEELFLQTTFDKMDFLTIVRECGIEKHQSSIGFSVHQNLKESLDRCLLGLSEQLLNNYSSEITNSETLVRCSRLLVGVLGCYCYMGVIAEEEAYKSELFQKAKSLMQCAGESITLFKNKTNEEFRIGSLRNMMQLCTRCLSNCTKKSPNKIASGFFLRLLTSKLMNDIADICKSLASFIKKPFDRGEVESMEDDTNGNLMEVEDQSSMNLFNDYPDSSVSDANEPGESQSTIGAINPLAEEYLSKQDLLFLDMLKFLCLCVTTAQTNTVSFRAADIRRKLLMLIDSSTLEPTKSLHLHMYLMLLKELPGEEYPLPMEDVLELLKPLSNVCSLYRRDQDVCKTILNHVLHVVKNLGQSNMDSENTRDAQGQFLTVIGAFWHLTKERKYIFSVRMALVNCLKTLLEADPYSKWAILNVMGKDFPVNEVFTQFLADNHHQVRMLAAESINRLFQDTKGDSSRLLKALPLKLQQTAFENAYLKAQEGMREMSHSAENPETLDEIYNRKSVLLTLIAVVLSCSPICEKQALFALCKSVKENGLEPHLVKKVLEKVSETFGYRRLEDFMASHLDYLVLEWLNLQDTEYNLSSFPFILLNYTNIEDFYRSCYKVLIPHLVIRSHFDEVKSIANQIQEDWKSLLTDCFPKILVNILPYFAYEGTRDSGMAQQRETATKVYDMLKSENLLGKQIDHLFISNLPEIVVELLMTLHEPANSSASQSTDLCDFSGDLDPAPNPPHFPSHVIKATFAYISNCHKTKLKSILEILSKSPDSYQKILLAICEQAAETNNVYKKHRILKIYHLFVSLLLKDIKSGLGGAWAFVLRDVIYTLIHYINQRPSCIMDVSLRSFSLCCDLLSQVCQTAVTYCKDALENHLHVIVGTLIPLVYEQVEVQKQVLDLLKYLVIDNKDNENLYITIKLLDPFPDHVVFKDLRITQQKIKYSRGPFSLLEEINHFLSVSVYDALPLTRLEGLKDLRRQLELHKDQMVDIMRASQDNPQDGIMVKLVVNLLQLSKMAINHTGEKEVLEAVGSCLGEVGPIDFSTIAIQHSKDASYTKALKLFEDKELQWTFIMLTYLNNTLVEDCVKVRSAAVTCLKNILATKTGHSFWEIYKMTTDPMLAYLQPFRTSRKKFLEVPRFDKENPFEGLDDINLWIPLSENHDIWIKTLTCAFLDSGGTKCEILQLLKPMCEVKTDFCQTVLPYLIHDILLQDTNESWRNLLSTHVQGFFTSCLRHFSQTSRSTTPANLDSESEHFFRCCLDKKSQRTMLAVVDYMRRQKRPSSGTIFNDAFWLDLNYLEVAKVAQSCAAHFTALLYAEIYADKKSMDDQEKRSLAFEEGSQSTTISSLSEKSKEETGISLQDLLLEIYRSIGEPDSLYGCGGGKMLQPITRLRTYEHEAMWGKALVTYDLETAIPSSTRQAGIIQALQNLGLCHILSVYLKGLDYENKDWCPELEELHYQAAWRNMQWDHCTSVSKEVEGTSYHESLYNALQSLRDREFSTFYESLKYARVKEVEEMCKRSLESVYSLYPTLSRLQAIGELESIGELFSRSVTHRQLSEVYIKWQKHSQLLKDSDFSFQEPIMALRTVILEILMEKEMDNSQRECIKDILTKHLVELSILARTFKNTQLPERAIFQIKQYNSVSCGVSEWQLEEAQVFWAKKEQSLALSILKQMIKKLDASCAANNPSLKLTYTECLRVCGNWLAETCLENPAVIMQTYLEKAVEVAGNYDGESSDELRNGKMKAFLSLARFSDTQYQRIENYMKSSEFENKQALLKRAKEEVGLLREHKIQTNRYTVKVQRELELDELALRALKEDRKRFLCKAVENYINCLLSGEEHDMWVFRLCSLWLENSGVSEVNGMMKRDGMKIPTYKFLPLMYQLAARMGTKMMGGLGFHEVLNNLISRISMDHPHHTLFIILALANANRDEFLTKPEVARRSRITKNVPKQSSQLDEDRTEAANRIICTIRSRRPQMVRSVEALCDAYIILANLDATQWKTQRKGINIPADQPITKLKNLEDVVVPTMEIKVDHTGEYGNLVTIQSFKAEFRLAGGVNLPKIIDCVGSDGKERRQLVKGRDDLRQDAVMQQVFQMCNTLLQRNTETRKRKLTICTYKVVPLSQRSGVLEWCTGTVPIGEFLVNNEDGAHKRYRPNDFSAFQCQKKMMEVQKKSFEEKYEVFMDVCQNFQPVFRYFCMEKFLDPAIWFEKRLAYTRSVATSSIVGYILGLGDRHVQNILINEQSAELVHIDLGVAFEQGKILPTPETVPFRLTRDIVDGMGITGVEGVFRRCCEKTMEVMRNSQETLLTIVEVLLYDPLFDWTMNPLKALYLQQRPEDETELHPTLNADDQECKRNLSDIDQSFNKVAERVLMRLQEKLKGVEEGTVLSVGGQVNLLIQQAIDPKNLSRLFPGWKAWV
UniProt O75882: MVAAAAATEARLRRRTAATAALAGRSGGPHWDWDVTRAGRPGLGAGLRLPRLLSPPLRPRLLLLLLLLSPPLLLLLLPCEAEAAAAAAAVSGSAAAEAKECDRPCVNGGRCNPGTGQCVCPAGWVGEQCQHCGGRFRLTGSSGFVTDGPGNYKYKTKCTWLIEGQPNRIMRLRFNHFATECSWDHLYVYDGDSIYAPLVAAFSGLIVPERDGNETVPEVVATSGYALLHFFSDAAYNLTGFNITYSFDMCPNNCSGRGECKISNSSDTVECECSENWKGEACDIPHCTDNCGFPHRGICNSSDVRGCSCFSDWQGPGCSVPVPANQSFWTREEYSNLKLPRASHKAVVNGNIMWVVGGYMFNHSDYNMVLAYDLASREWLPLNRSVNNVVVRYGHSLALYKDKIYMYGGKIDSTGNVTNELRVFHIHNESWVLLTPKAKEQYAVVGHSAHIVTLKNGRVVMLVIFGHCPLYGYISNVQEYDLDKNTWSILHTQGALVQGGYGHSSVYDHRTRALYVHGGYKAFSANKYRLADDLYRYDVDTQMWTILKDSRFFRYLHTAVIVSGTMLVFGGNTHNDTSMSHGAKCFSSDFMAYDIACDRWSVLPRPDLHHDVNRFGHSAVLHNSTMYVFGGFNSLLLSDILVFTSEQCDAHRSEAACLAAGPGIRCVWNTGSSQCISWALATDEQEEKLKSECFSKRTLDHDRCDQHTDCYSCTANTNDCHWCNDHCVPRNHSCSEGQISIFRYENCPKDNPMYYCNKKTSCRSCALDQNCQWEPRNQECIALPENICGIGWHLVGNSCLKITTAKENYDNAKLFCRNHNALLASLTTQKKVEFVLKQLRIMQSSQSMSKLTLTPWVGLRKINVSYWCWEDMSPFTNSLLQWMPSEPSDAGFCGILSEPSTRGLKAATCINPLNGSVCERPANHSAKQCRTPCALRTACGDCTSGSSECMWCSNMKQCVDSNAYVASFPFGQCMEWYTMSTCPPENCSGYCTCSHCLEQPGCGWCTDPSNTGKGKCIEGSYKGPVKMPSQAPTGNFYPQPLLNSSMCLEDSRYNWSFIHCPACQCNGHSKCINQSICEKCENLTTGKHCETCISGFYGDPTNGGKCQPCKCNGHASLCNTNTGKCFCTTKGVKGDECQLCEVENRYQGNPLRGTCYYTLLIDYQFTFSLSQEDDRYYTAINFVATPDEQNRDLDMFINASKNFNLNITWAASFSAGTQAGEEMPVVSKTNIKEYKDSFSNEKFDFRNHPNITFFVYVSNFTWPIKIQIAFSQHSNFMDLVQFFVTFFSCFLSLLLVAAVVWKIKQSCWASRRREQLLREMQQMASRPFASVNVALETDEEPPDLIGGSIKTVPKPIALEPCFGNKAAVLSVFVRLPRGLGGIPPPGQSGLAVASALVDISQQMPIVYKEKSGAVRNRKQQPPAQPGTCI
UniProt Q13825: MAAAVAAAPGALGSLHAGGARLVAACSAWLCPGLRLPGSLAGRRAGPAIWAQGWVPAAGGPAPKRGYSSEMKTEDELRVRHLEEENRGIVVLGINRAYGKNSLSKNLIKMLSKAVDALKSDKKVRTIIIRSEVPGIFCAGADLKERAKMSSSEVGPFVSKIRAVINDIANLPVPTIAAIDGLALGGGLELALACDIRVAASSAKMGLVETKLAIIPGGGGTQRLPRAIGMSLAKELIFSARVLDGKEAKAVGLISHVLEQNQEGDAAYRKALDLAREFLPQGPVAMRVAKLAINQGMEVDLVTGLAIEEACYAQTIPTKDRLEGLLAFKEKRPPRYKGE
UniProt O95260: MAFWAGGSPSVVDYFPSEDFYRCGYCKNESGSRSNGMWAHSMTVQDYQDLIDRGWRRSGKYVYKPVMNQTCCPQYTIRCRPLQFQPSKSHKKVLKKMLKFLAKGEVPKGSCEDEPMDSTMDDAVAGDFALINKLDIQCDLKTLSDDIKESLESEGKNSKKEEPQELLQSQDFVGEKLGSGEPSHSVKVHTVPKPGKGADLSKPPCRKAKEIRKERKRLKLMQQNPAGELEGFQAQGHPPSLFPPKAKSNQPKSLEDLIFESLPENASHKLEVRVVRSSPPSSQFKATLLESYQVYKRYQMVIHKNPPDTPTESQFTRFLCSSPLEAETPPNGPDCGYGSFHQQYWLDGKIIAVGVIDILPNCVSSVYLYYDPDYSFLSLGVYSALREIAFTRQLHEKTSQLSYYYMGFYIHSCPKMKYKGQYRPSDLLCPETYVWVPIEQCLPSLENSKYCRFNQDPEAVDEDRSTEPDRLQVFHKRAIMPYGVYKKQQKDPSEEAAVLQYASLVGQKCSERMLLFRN
UniProt Q93050, whole entry, looked up: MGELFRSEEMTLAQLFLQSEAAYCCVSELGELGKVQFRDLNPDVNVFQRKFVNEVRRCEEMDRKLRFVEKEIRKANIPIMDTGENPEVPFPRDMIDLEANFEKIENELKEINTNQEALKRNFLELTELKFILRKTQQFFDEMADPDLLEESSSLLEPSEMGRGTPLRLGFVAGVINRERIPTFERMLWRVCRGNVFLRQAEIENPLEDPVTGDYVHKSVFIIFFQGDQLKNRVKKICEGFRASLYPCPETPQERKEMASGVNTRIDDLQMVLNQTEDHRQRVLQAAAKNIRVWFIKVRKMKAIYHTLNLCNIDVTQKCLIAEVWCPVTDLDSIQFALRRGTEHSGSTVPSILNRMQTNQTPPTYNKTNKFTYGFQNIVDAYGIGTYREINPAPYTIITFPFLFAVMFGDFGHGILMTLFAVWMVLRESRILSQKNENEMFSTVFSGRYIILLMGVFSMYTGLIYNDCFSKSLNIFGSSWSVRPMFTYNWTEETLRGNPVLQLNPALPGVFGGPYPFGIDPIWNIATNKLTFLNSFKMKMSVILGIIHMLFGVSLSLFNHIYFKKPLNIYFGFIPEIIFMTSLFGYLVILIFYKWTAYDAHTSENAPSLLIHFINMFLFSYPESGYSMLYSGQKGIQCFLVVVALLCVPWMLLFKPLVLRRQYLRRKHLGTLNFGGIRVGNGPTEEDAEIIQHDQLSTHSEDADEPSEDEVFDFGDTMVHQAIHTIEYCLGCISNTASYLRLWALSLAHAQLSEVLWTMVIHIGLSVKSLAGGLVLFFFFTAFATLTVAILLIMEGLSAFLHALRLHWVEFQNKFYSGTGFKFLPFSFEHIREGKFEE
UniProt P27449, whole entry, looked up: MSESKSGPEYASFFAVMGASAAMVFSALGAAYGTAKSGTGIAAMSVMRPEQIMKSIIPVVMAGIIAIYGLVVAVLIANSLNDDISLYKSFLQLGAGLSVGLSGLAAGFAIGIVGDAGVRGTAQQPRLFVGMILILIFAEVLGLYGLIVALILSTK

Each target was assayed with Cc1ccc(-n2nc(C(C)(C)C)cc2NC(=O)Nc2ccc(OCCN3CCOCC3)c3ccccc23)cc1 [doramapimod] (assay: log2 fold change, soluble protein after heating vs DMSO (PISA); higher = thermal stabilisation; K562 lysate, 10 uM; active = over 0.2 and 3.5 SD of the protein, either way, in both replicates (recomputed)).
How it was run: (§1)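 Following dounce homogenisation of K562 pellets in PBS pH 7.4 with 1 mM MgCl2, crude extract at 1 mg/mL protein was incubated for 30 min with 10 μM compound. Aliquots were then heated for 3 min over 48°C-58°C and pooled, NP-40 was added to 0.5% at 4°C, and soluble protein was recovered as the supernatant at 21,000xg for 90 min. Channel-sum-equalised TMTpro 16plex LC-MS/MS quantified this protein. Each value, from duplicates, is a log-two fold change in thermal stability relative to solvent controls.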
For ATP5F1B (UniProt H0YI37), the log2 fold change was inactive: -0.066.
In the case of AVL9 (UniProt Q8NBF6), the log2 fold change is reported as inactive: 0.062.
ATF7IP2 (UniProt Q5U623) was tested, and the log2 fold change was inactive: 0.073.
In the case of ATP5ME (UniProt P56385), the log2 fold change is reported as inactive: -0.009.
For ATP11C, A0A067XG54, the log2 fold change was inactive: 0.044.
ATP5MPL (UniProt P56378) was tested, and the log2 fold change was inactive: 0.056.
For ATP5PF isoform 2 (UniProt P18859), the log2 fold change was inactive: -0.083.
For ATM (UniProt Q13315), the log2 fold change was inactive: 0.051.
In the case of ATP13A1 (UniProt Q9HD20), the log2 fold change is reported as inactive: -0.053.
For ATRN (UniProt O75882), the log2 fold change was inactive: -0.048.
With B3GNTL1 (UniProt Q67FW5) the log2 fold change was inactive: 0.06.
With ATP1B1 (UniProt P05026) the log2 fold change was inactive: -0.037.
For B4GALNT1 (UniProt Q00973), the log2 fold change was inactive: -0.022.
With ATXN7L3 isoform 2 (UniProt Q14CW9) the log2 fold change was inactive: 0.035.
AUH (UniProt Q13825) was tested, and the log2 fold change was inactive: 0.023.
For NA (UniProt B2RBV5), the log2 fold change was inactive: 0.007.
ATG16L1 (UniProt Q676U5) was tested, and the log2 fold change was inactive: -0.02.
ATE1 isoform 2 (UniProt O95260) was tested, and the log2 fold change was inactive: -0.071.
In the case of ASXL2 (UniProt Q76L83), the log2 fold change is reported as inactive: -0.099.
In the case of AURKA (UniProt O14965), the log2 fold change is reported as inactive: -0.061.
In the case of ATXN2 (UniProt F8WB05), the log2 fold change is reported as inactive: -0.12.
In the case of ATP6V0A1 (UniProt Q93050), the log2 fold change is reported as inactive: -0.016.
For ATP1A1 (UniProt P05023), the log2 fold change was inactive: -0.024.
In the case of ATP11C (UniProt Q8NB49), the log2 fold change is reported as inactive: 0.007.
For ATP6V0C (UniProt P27449), the log2 fold change was inactive: 0.001.
For ATAD3B (UniProt Q5T9A4), the log2 fold change was inactive: 0.003.
In the case of ATE1 (UniProt O95260), the log2 fold change is reported as inactive: 0.043.
ATP6V1A (UniProt P38606) was tested, and the log2 fold change was inactive: 0.023.
With ATP6AP1 (UniProt Q15904) the log2 fold change was inactive: -0.015.

What follows are targets tested with Cc1ccc(NC(=O)c2ccc(CN3CC[C@H](N(C)C)C3)c(C(F)(F)F)c2)cc1Nc1nccc(-c2cncnc2)n1 [bafetinib] in the same assay as above.
How it was run: as §1
In the case of ATP5F1B (UniProt H0YI37), the log2 fold change is reported as inactive: -0.158.
For AVL9 (UniProt Q8NBF6), the log2 fold change was inactive: -0.012.
With ATF7IP2 (UniProt Q5U623) the log2 fold change was inactive: -0.023.
ATP5ME (UniProt P56385) was tested, and the log2 fold change was inactive: -0.069.
With ATP11C, A0A067XG54 the log2 fold change was inactive: 0.03.
For ATP5MPL (UniProt P56378), the log2 fold change was inactive: -0.024.
With ATG2A (UniProt Q2TAZ0) the log2 fold change was inactive: 0.047.
ATP5PF isoform 2 (UniProt P18859) was tested, and the log2 fold change was inactive: 0.221.
For ATM (UniProt Q13315), the log2 fold change was inactive: -0.01.
For ATP13A1 (UniProt Q9HD20), the log2 fold change was inactive: -0.033.
In the case of ATP5F1B (UniProt F8W079), the log2 fold change is reported as inactive: -0.109.
For B3GNT5 (UniProt Q9BYG0), the log2 fold change was inactive: 0.076.
ATRN (UniProt O75882) was tested, and the log2 fold change was inactive: 0.054.
For B3GNTL1 (UniProt Q67FW5), the log2 fold change was inactive: 0.144.
ATP1B1 (UniProt P05026) was tested, and the log2 fold change was inactive: 0.066.
In the case of ATP1B2 (UniProt P14415), the log2 fold change is reported as inactive: 0.133.
With ATXN7L3 isoform 2 (UniProt Q14CW9) the log2 fold change was inactive: 0.123.
With AUH (UniProt Q13825) the log2 fold change was inactive: -0.003.
NA (UniProt B2RBV5) was tested, and the log2 fold change was inactive: 0.037.
With ATG16L1 (UniProt Q676U5) the log2 fold change was inactive: 0.001.
With ATE1 isoform 2 (UniProt O95260) the log2 fold change was inactive: -0.093.
ASXL2 (UniProt Q76L83) was tested, and the log2 fold change was inactive: 0.032.
With AURKA (UniProt O14965) the log2 fold change was inactive: -0.09.
With ATXN2 (UniProt F8WB05) the log2 fold change was inactive: 0.045.
In the case of ATP6V0A1 (UniProt Q93050), the log2 fold change is reported as inactive: 0.064.
ATP1A1 (UniProt P05023) was tested, and the log2 fold change was inactive: 0.003.
With ATP11C (UniProt Q8NB49) the log2 fold change was inactive: -0.041.
ATP6V0C (UniProt P27449) was tested, and the log2 fold change was inactive: 0.01.
For ATAD3B (UniProt Q5T9A4), the log2 fold change was inactive: -0.074.
In the case of ATE1 (UniProt O95260), the log2 fold change is reported as inactive: -0.039.
For ATP6V1A (UniProt P38606), the log2 fold change was inactive: -0.006.
ATP6AP1 (UniProt Q15904) was tested, and the log2 fold change was inactive: 0.022.

What follows are targets tested with Cc1cccc(CC(=O)N2CCc3c2ccc(-c2cn(C)c4ncnc(N)c24)c3F)n1 in the same assay as above.
How it was run: as §1
With AVL9 (UniProt Q8NBF6) the log2 fold change was inactive: 0.08.
In the case of ATF7IP2 (UniProt Q5U623), the log2 fold change is reported as inactive: -0.155.
With ATP5ME (UniProt P56385) the log2 fold change was inactive: 0.001.
ATP11C, A0A067XG54 was tested, and the log2 fold change was inactive: 0.052.
ATP5MPL (UniProt P56378) was tested, and the log2 fold change was inactive: -0.054.
For ATP5PF isoform 2 (UniProt P18859), the log2 fold change was inactive: -0.19.
With ATM (UniProt Q13315) the log2 fold change was inactive: 0.08.
ATP13A1 (UniProt Q9HD20) was tested, and the log2 fold change was inactive: 0.043.
In the case of B3GNT5 (UniProt Q9BYG0), the log2 fold change is reported as inactive: -0.062.
With ATRN (UniProt O75882) the log2 fold change was inactive: -0.009.
In the case of B3GNTL1 (UniProt Q67FW5), the log2 fold change is reported as inactive: 0.172.
For ATP1B1 (UniProt P05026), the log2 fold change was inactive: -0.122.
B4GALNT1 (UniProt Q00973) was tested, and the log2 fold change was inactive: 0.023.
ATXN7L3 isoform 2 (UniProt Q14CW9) was tested, and the log2 fold change was inactive: -0.163.
AUH (UniProt Q13825) was tested, and the log2 fold change was inactive: -0.345.
ATG16L1 (UniProt Q676U5) was tested, and the log2 fold change was inactive: -0.058.
In the case of ATE1 isoform 2 (UniProt O95260), the log2 fold change is reported as inactive: 0.029.
With ASXL2 (UniProt Q76L83) the log2 fold change was inactive: 0.082.
AURKA (UniProt O14965) was tested, and the log2 fold change was inactive: -0.062.
In the case of ATXN2 (UniProt F8WB05), the log2 fold change is reported as inactive: 0.001.
For ATP6V0A1 (UniProt Q93050), the log2 fold change was inactive: 0.051.
In the case of ATP1A1 (UniProt P05023), the log2 fold change is reported as inactive: -0.046.
In the case of ATP11C (UniProt Q8NB49), the log2 fold change is reported as inactive: 0.018.
ATP6V0C (UniProt P27449) was tested, and the log2 fold change was inactive: 0.073.
For ATAD3B (UniProt Q5T9A4), the log2 fold change was inactive: -0.129.
ATE1 (UniProt O95260) was tested, and the log2 fold change was inactive: 0.009.
In the case of ATP6V1A (UniProt P38606), the log2 fold change is reported as inactive: -0.014.
With ATP6AP1 (UniProt Q15904) the log2 fold change was inactive: 0.081.
